# Test results reported in patent US8568699B2, “Soft anticholinergic zwitterions” (priority 2005, dated 2013).
# Marks after values point to notes of the source that are not given here.
# Test system: muscarinic M3 cholinoceptors (guinea pig tracheal rings)
# Type: cell-based
# Conditions: antagonism against carbachol, isolated guinea pig tracheal rings
smiles,measurement,value
CN1[C@@H]2CC[C@H]1C[C@@H](OC(=O)C(CO)c1ccccc1)C2 (stereo partly shown) [Atropine],Slope ± S.E. (Schild plot),0.98 ± 0.02^a
